{
  "sequences": {"note": "Amino acid sequences for entries named in this document (tags omitted).", "UniProt Q9GZV5": "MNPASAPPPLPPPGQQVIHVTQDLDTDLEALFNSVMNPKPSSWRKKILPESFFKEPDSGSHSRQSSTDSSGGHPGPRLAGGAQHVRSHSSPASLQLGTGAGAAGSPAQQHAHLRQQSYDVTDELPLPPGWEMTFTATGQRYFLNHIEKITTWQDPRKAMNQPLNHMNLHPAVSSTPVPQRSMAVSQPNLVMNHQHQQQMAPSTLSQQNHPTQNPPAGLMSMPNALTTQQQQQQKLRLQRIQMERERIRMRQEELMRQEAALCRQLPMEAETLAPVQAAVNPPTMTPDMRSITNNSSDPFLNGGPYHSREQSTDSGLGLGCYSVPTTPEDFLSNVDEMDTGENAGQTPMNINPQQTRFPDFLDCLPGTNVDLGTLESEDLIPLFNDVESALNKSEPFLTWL"},
  "source": "paper PMC8143797",
  "binders": {"B1": {"name": "Triple Myc-tagged KAT14 (protein, UniProt Q9H8E8 1-782)", "chain": "MDSSIHLSSLISRHDDEATRTSTSEGLEEGEVEGETLLIVESEDQASVDLSHDQSGDSLNSDEGDVSWMEEQLSYFCDKCQKWIPASQLREQLSYLKGDNFFRFTCSDCSADGKEQYERLKLTWQQVVMLAMYNLSLEGSGRQGYFRWKEDICAFIEKHWTFLLGNRKKTSTWWSTVAGCLSVGSPMYFRSGAQEFGEPGWWKLVHNKPPTMKPEGEKLSASTLKIKAASKPTLDPIITVEGLRKRASRNPVESAMELKEKRSRTQEAKDIRRAQKEAAGFLDRSTSSTPVKFISRGRRPDVILEKGEVIDFSSLSSSDRTPLTSPSPSPSLDFSAPGTPASHSATPSLLSEADLIPDVMPPQALFHDDDEMEGDGVIDPGMEYVPPPAGSVASGPVVGVRKKVRGPEQIKQEVESEEEKPDRMDIDSEDTDSNTSLQTRAREKRKPQLEKDTKPKEPRYTPVSIYEEKLLLKRLEACPGAVAMTPEARRLKRKLIVRQAKRDRGLPLFDLDQVVNAALLLVDGIYGAKEGGISRLPAGQATYRTTCQDFRILDRYQTSLPSRKGFRHQTTKFLYRLVGSEDMAVDQSIVSPYTSRILKPYIRRDYETKPPKLQLLSQIRSHLHRSDPHWTPEPDAPLDYCYVRPNHIPTINSMCQEFFWPGIDLSECLQYPDFSVVVLYKKVIIAFGFMVPDVKYNEAYISFLFVHPEWRRAGIATFMIYHLIQTCMGKDVTLHVSASNPAMLLYQKFGFKTEEYVLDFYDKYYPLESTECKHAFFLRLRR"}},
  "target": "Flag-TAZ (human) (UniProt Q9GZV5)",
  "assay": "co-IP; HEK293 cells expressing Flag-TAZ-CAMTA1, Flag-TAZ control or Flag-YAP-TFE3, Myc-KAT14 transiently transfected; Flag pull-down against IgG control",
  "note": "No constants are given. Whether binding was seen depends on the method and setting. In cells and extracts the contact can be indirect. Where a sequence is shown, tags or fusion partners need not be part of it.",
  "data": [
    {"binder": "B1", "values": [
      {"measurement": "binding", "value": "no binding"}
    ]}
  ]
}
